# Test results from the supplement of paper PMC8728848.
# The list shows a part of the results.
# Tests used:
# Experiment in all cases: glycan array binding signal (z-score within array); higher = stronger binding
# Details in all cases: glycan notation: IUPAC condensed, linker removed
# [1] = biological target: Gal(b1-4)GlcNAc(b1-3)Gal(b1-4)GlcNAc(b1-3)Gal(b1-4)GlcNAc(b1-3)Gal(b1-4)GlcNAc(b1-3)Gal(b1-4)GlcNAc(b1-2)[Gal(b1-4)GlcNAc(b1-3)Gal(b1-4)GlcNAc(b1-3)Gal(b1-4)GlcNAc(b1-3)Gal(b1-4)GlcNAc(b1-3)Gal(b1-4)GlcNAc(b1-6)]Man(a1-6)[Gal(b1-4)GlcNAc(b1-3)Gal(b1-4)GlcNAc(b1-3)Gal(b1-4)GlcNAc(b1-3)Gal(b1-4)GlcNAc(b1-3)Gal(b1-4)GlcNAc(b1-2)Man(a1-3)]Man(b1-4)GlcNAc(b1-4)[Fuc(a1-6)]GlcNAc
# In short: (§1)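 Negative Z-scores can be read as non-binding. The Z-score is calculated within each array and then averaged across arrays of one protein sequence at different concentrations or buffers and across linkers. Arrays, 3228 in all, were curated from the Consortium for Functional Glycomics database and kept only where the protein sequence was available.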
# [2] = biological target: Gal(b1-4)GlcNAc(b1-3)Gal(b1-4)GlcNAc(b1-3)Gal(b1-4)GlcNAc(b1-3)Gal(b1-4)GlcNAc(b1-3)Gal(b1-4)GlcNAc(b1-3)Gal(b1-4)GlcNAc(b1-2)Man(a1-3)[Gal(b1-4)GlcNAc(b1-3)Gal(b1-4)GlcNAc(b1-3)Gal(b1-4)GlcNAc(b1-3)Gal(b1-4)GlcNAc(b1-3)Gal(b1-4)GlcNAc(b1-3)Gal(b1-4)GlcNAc(b1-2)Man(a1-6)]Man(b1-4)GlcNAc(b1-4)GlcNAc
# In short: as §1
# [3] = biological target: Gal(b1-4)GlcNAc(b1-3)Gal(b1-4)GlcNAc(b1-3)GalNAc
# In short: as §1
# [4] = biological target: Gal(b1-4)GlcNAc(b1-3)Gal(b1-4)GlcNAc(b1-3)[Gal(b1-4)GlcNAc(b1-3)Gal(b1-4)GlcNAc(b1-6)]GalNAc
# In short: as §1
# [5] = biological target: Gal(b1-4)GlcNAc(b1-3)Gal(b1-4)GlcNAc(b1-6)[Gal(b1-3)]GalNAc
# In short: as §1
# [6] = biological target: Gal(b1-4)GlcNAc(b1-3)Gal(b1-4)[Fuc(a1-3)]GlcNAc(b1-3)Gal(b1-4)[Fuc(a1-3)]GlcNAc
# In short: as §1
# [7] = biological target: Gal(b1-4)GlcNAc(b1-3)GalNAc
# In short: as §1
# [8] = biological target: Gal(b1-4)GlcNAc(b1-3)[Fuc(a1-3)GlcNAc(b1-6)]Gal(b1-4)Glc
# In short: as §1
# [9] = biological target: Gal(b1-4)GlcNAc(b1-3)[Gal(b1-4)GlcNAc(b1-6)]Gal(b1-4)GlcNAc
# In short: as §1
# [10] = biological target: Gal(b1-4)GlcNAc(b1-3)[GlcNAc(b1-6)]Gal(b1-4)GlcNAc
# In short: as §1
# [11] = biological target: Gal(b1-4)GlcNAc(b1-6)Gal(b1-4)GlcNAc
# In short: as §1
# [12] = biological target: Gal(b1-4)GlcNAc(b1-6)GalNAc
# In short: as §1
# [13] = biological target: Gal(b1-4)GlcNAc(b1-6)[Gal(b1-3)]GalNAc
# In short: as §1
# [14] = biological target: Gal(b1-4)GlcNAc(b1-6)[Gal(b1-4)GlcNAc(b1-3)]GalNAc
# In short: as §1
# [15] = biological target: Gal(b1-4)GlcNAc6P
# In short: as §1
# [16] = biological target: Gal(b1-6)Gal
# In short: as §1
# [17] = biological target: Gal3S(b1-3)GalNAc
# In short: as §1
# [18] = biological target: Gal3S(b1-3)GlcNAc
# In short: as §1
# [19] = biological target: Gal3S(b1-3)[Fuc(a1-4)]GlcNAc
# In short: as §1
binder,measurement,setting,value
SynCAM (Mus musculus) (protein) MASAVLPSGSQCAAAAAVAAAAAPPGLRLRLLLLLLSAAALIPTGDGQNLFTKDVTVIEGEVATISCQVNKSDDSVIQLLNPNRQTIYFRDFRPLKDSRFQLLNFSSSELKVSLTNVSISDEGRYFCQLYTDPPQESYTTITVLVPPRNLMIDIQKDTAVEGEEIEVNCTAMASKPATTIRWFKGNKELKGKSEVEEWSDMYTVTSQLMLKVHKEDDGVPVICQVEHPAVTGNLQTQRYLEVQYKPQVHIQMTYPLQGLTREGDAFELTCEAIGKPQPVMVTWVRVDDEMPQHAVLSGPNLFINNLNKTDNGTYRCEASNIVGKAHSDYMLYVYDPPTTIPPP,glycan array binding signal (z-score),[1],2.34
same,glycan array binding signal (z-score),[2],0.671
same,glycan array binding signal (z-score),[3],-1.14
same,glycan array binding signal (z-score),[4],0.945
same,glycan array binding signal (z-score),[5],0.463
same,glycan array binding signal (z-score),[6],0.706
same,glycan array binding signal (z-score),[7],-0.791
same,glycan array binding signal (z-score),[8],0.097
same,glycan array binding signal (z-score),[9],0.392
same,glycan array binding signal (z-score),[10],-0.62
same,glycan array binding signal (z-score),[11],-0.149
same,glycan array binding signal (z-score),[12],0.115
same,glycan array binding signal (z-score),[13],-0.072
same,glycan array binding signal (z-score),[14],0.694
same,glycan array binding signal (z-score),[15],-0.904
same,glycan array binding signal (z-score),[16],-1.06
same,glycan array binding signal (z-score),[17],-0.546
same,glycan array binding signal (z-score),[18],-0.217
same,glycan array binding signal (z-score),[19],0.105

# Retrieved one by one from the list above, 2 records:
binder,measurement,setting,value
SynCAM (Mus musculus) (protein) MASAVLPSGSQCAAAAAVAAAAAPPGLRLRLLLLLLSAAALIPTGDGQNLFTKDVTVIEGEVATISCQVNKSDDSVIQLLNPNRQTIYFRDFRPLKDSRFQLLNFSSSELKVSLTNVSISDEGRYFCQLYTDPPQESYTTITVLVPPRNLMIDIQKDTAVEGEEIEVNCTAMASKPATTIRWFKGNKELKGKSEVEEWSDMYTVTSQLMLKVHKEDDGVPVICQVEHPAVTGNLQTQRYLEVQYKPQVHIQMTYPLQGLTREGDAFELTCEAIGKPQPVMVTWVRVDDEMPQHAVLSGPNLFINNLNKTDNGTYRCEASNIVGKAHSDYMLYVYDPPTTIPPP,glycan array binding signal (z-score),[4],0.945
same,glycan array binding signal (z-score),[11],-0.149
